Data from publication PMC12514176.
Results are given in words; binding and its absence hold for the method and conditions named. In cells and extracts the contact can be indirect. Some binding calls cover weakened binding; strength is not graded here.

Sequences of proteins named here, by UniProt entry; tags and fusion partners are left off.
UniProt Q9JKF1: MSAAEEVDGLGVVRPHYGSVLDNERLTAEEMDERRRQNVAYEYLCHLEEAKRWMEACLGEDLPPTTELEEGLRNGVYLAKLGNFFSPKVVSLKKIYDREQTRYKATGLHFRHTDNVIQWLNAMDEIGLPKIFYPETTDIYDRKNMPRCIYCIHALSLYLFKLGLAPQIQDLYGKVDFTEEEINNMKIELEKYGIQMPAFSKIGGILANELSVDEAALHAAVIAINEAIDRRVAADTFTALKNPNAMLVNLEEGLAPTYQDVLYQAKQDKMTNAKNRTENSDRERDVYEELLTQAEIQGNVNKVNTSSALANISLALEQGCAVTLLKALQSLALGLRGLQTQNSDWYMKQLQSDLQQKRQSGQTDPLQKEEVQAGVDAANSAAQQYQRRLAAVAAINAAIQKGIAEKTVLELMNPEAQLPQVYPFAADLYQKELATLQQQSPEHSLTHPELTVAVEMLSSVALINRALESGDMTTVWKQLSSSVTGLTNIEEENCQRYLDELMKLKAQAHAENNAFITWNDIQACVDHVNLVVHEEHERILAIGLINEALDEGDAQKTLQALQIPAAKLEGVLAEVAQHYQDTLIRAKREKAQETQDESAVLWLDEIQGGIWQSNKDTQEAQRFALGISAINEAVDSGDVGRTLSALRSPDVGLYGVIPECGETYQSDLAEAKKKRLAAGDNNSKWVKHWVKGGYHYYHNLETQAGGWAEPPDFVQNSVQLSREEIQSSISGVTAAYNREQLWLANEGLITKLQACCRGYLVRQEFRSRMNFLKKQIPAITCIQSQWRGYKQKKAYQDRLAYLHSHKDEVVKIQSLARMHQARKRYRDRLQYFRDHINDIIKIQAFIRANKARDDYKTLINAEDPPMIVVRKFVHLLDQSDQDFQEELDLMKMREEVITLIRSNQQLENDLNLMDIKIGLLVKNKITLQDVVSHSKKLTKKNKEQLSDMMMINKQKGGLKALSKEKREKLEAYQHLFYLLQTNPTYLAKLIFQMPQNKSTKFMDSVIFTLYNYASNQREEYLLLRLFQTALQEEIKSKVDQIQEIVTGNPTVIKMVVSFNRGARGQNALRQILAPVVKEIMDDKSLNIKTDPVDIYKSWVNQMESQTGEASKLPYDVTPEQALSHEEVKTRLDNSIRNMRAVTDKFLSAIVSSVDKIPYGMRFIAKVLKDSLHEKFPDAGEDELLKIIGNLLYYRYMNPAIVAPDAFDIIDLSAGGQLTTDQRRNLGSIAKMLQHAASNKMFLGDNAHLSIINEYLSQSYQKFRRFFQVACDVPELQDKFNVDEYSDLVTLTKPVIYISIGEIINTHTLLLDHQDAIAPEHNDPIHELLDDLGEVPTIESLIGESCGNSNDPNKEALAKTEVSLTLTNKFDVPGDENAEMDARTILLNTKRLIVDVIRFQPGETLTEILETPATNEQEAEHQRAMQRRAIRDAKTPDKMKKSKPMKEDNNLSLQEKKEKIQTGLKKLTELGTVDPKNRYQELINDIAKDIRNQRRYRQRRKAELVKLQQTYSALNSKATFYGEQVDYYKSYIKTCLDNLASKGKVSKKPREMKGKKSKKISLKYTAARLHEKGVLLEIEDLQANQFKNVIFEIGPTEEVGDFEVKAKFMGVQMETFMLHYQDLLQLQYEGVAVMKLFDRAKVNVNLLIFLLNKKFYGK

What was measured:
[1] = molecular target: IQ motif-containing GTPase-activating protein 1 (IQGAP1) (mouse (endogenous in macrophages)) (UniProt Q9JKF1); test: condition: only cells pretreated with the RAC1 inhibitor EHT1864; co-IP; as a1, macrophages pretreated with the RAC1 inhibitor EHT1864 before LPS
[2] = molecular target: IQ motif-containing GTPase-activating protein 1 (IQGAP1) (mouse (endogenous in macrophages)) (UniProt Q9JKF1); test: condition: only cells pretreated with Bryostatin (BST); co-IP; as a1, macrophages pretreated with the protein kinase C activator Bryostatin (BST) before LPS
[3] = molecular target: IQ motif-containing GTPase-activating protein 1 (IQGAP1) (mouse (endogenous in macrophages)) (UniProt Q9JKF1); test: condition: only cells pretreated with arachidonic acid (AA); co-IP; as a1, macrophages pretreated with the protein kinase C activator arachidonic acid (AA) before LPS
[4] = molecular target: IQ motif-containing GTPase-activating protein 1 (IQGAP1) (mouse (endogenous in macrophages)) (UniProt Q9JKF1); test: co-IP; IP of endogenous IQGAP1 from lysates of LPS-stimulated Pggt1b^Δ/Δ macrophages (NP-40 buffer: 150 mM NaCl, 1% NP40, 10% glycerol, 10 mM Tris-HCl pH 8; Protein G Sepharose), Western blot for Pyrin and IQGAP1

B1: Pyrin (protein, UniProt Q9JJ26 1-767)
chain: MAKTLGDHLLNTLEELLPYDFEKFKFKLQNTSLEKGHSKIPRGHMQMARPVKLASLLITYYGEEYAVRLTLQILRATNQRQLAEELRKATGTEHLIEENRVGGSVQSSVENKAKSVKVPDVPEGDGTQQNNDESDTLPSSQAEVGKGPQKKSLTKRKDQRGPESLDSQTKPWTRSTAPLYRRTQGTQSPGDKESTASAQLRRNVSSAGRLQGLYNNAPGRRESKKAEVYVYLPSGKKRPRSLEITTYSREGEPPNSEVLPTQEETRNGSLIRMRTATLNGRTTGALEKGTGIPEHSMVLDEKTFRNMSSKTSLIGEERCPTSWTENGNGSPETTESSGETAGSILSDPEVPLSLCEKPAKTPEDPASLGQAACEGRSQDKAVCPLCHTQEGDLRGDTCVQSSCSCSIAPGDPKASGRCSICFQCQGLLARKSCEAQSPQSLPQCPRHMKQVLLLFCEDHREPICLICRLSLEHQGHRVRPIEEAALEYKEQIREQLERLREMRGYVEEHRLQGDKKTDDFLKQTEIQKQKISCPLEKLYQLLEKQEQLFVTWLQELSQTISKVRETYYTRVSLLDEMIEELEAKQDQPEWDLMQDIGITLHRAKMMSASELLDTPPGVKEKLHLLYQKSKSVEKNMQCFSEMLSSEMAFSASDVAKWEGRQPSATQVQGLVPTVHLKCDGAHTQDCDVVFYPEREAGGSEPKDYLHPQPAQDTPELHEIHSRNNKRKFKSFLKWKPSFSRTDWRLRTCCYRDLDQAAAHPNLIFSMI
Question: With B1 as the binder, how does the binding [1] read?
Answer: Its binding is “no binding”.

Question: And the binding [2]?
Answer: The binding was “no binding”.

Question: What about the binding [3] of the same binder?
Answer: Its binding is “no binding”.

Question: What about the binding [4] of the same binder?
Answer: The binding was “binds”.
